The labels stand for the following.
B1: tRNA (parent)
chain: GUUCCGUUGGCGUAAUGGUAACGCGUCUCCCUCCUAAGGAGAAGACUGCGGGUUCGAGUCCCGUACGGAACG

Our source for the yeast fitness values is the RNAGym collection of RNA variant scans (doi:10.1126/science.aae0568).

Variants at the floor of the assay are shown more often than the library holds them. Some results are limits rather than exact numbers.

The variants in this data set derive from B1. Put plainly: yeast fitness relative to wild type (ratio to wild type); higher = fitter; tRNA-Arg(CCU), competitive growth, 37 C, YPD. In short, it runs like this:
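A pool of Saccharomyces cerevisiae strains, each with a tRNA-Arg(CCU) gene variant at the native genomic locus, was competed in YPD at 37°C for 24 hours across six parallel replicates. The variants had been chemically synthesised at a 3% per-site mutation rate over 69 sites, and gene amplicons before and after competition were read by 100-nucleotide paired-end sequencing. Darwinian fitness relative to wild type rested on changes in genotype frequencies. Genotypes required ≥ 100 starting reads, and estimates < 0.5 were set to 0.5.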
Turning to G56A A65G C66U A69U, the yeast fitness was found to be 0.573.

C5A A21U C55A: the yeast fitness turned out to be 0.572.

Take G18C C30G U32C C62A: the yeast fitness was no more than 0.5.

A21C C33G A43C A57U: the yeast fitness was no more than 0.5.

For C5A C11G G41C C62G, the yeast fitness is no more than 0.5.

On to A14G A20G C33U G52A G63A, for which the yeast fitness is no more than 0.5.

Turning to G39A G41C U47A G50C A57U, the yeast fitness is no more than 0.5.

As for U2A C11G G25A C49A C60G, the yeast fitness was no more than 0.5.

In the case of G10A C27A A36U A37U G48C, the yeast fitness is no more than 0.5.

For the variant A42C C62U C66U, the yeast fitness amounted to 0.507.

For G12A U13C U16A U19G G23A G58A G68A, the yeast fitness was no more than 0.5.

For the variant G9A C11A U35C A43G U64A, the yeast fitness was no more than 0.5.

Turning to C4A C5U G58C U64A, the yeast fitness turned out to be 0.572.

Regarding C5U C22G A42C U64G A70U, the yeast fitness is no more than 0.5.

A15C C31U G68C: the yeast fitness is no more than 0.5.

In the case of C27U C34G A37U G41C G48A, the yeast fitness is no more than 0.5.

Regarding A36G G38C C62A G68A, the yeast fitness is no more than 0.5.

Regarding G18A U35A A57U C61U, the yeast fitness is no more than 0.5.

Turning to U32A C33U A42U C60A, the yeast fitness turned out to be 0.595.

On to U3A C27G C31U C33U A42C C66U A70C, for which the yeast fitness is no more than 0.5.

In the case of G12C C24U C46U C49G C62A, the yeast fitness was no more than 0.5.

Take C34A A57G: the yeast fitness was 0.715.

As for U8C G9A A42G G56A, the yeast fitness was no more than 0.5.

On to C24A C33G C60G, for which the yeast fitness is no more than 0.5.

In the case of C33U A40G G51C A57U, the yeast fitness was no more than 0.5.

A15G U53A U64G G67C: the yeast fitness is no more than 0.5.

Turning to C29G C30G U32C A36U C55U, the yeast fitness is no more than 0.5.

With A20G C34G U47C, the yeast fitness was no more than 0.5.

Regarding C29G A45U C46G G48A G56C, the yeast fitness is no more than 0.5.

For U13A A20G C22G C24G A36U A40C G51C, the yeast fitness is no more than 0.5.

Take G9C U16C C30U U53A: the yeast fitness is no more than 0.5.

With U35A A37G A43U A45C, the yeast fitness was no more than 0.5.

For U13C C29U, the yeast fitness came to 0.831.

For the variant C29G A40G C55U, the yeast fitness is no more than 0.5.

With A14C A36G G41A G48C U59C A70C, the yeast fitness is no more than 0.5.

In the case of C5G G23A U26C G50C C66U, the yeast fitness was no more than 0.5.

As to U2A G6A A40U A69C, the yeast fitness is no more than 0.5.

Consider G12C G18C U35A G39A U53A, for which the yeast fitness is no more than 0.5.

Consider C29G C49G G63C, for which the yeast fitness was no more than 0.5.

For U2C G12A G18C C33U, the yeast fitness came out at 0.561.

As to G9A G23C C29G A43U G50A A65C, the yeast fitness was no more than 0.5.

Take U8C C49U C61A: the yeast fitness is no more than 0.5.

Regarding G23A C61A C62U A65U A69C, the yeast fitness is no more than 0.5.

On to U2A C24G A70U, for which the yeast fitness was no more than 0.5.

With C24G C30U C34A C46U A70U, the yeast fitness was no more than 0.5.

As to C11U C24G A43C G63C G67A, the yeast fitness was no more than 0.5.

As to G18C U19A U28G A40C C62G, the yeast fitness is no more than 0.5.

In the case of G18A A70G, the yeast fitness was determined as 0.646.

Take U16G U35A G51C G68A: the yeast fitness is no more than 0.5.

For C24G A36G G68A, the yeast fitness is no more than 0.5.

With C5U A21C C30U C60A C61G, the yeast fitness was no more than 0.5.

A14U A40U G68A A69U: the yeast fitness was no more than 0.5.

For the variant U32A G38C U47A, the yeast fitness was no more than 0.5.

For the variant G12A C30U A37C C46U, the yeast fitness was no more than 0.5.

As to C4U A37C G41C, the yeast fitness was 0.577.

Take C24G A36C: the yeast fitness was found to be 0.531.

Turning to U7A A14G C31U A40U, the yeast fitness is no more than 0.5.

G12C C29G G48C: the yeast fitness is no more than 0.5.

In the case of U19C C62A, the yeast fitness amounted to 0.713.

With C22U A37G A43C C55G G68A, the yeast fitness is no more than 0.5.

With C11G C30U U35A U53G C62U A70C, the yeast fitness is no more than 0.5.

Take U19C G25A C55U A69C: the yeast fitness is no more than 0.5.

On to G9C U16C A69C, for which the yeast fitness was 0.562.

In the case of C5U G9C C27A A37U C49A G56A, the yeast fitness is no more than 0.5.

As to U3G G51A, the yeast fitness is 0.701.

As for A15G U16A A20G A42G, the yeast fitness was found to be 0.577.

On to A42G G50C A57U, for which the yeast fitness is no more than 0.5.

With U2A G12C A36C, the yeast fitness was no more than 0.5.

On to C5G A15G A40C C46A, for which the yeast fitness is no more than 0.5.

For the variant C4U C5G C29G C31G A37C A57C C62U, the yeast fitness is no more than 0.5.

With G9A U16C G41A G58A, the yeast fitness is no more than 0.5.

Consider C4G C5U C27G C34A A65C, for which the yeast fitness is no more than 0.5.

As for C4G G9A C27U C46G G48A C62G G68C, the yeast fitness was no more than 0.5.

For the variant A14G U54C A57U, the yeast fitness is no more than 0.5.

U35A A40U A42U: the yeast fitness was no more than 0.5.

On to C4G U8A G12A C62G, for which the yeast fitness was no more than 0.5.

In the case of U26G A37U A45U G51A, the yeast fitness was no more than 0.5.

Turning to G12C C30G A37U G41A G58C, the yeast fitness was 0.581.

As to C46A G48C, the yeast fitness was 0.924.

As to C5U C24A C33U U47C G63A G67C, the yeast fitness is no more than 0.5.

As for C29A C49U, the yeast fitness is 0.627.

Regarding U3A C11A A70G, the yeast fitness is no more than 0.5.

Turning to G12A C49A C60G G67C, the yeast fitness is no more than 0.5.
